Experimental findings from publication PMC6125951 are described below.

The chains behind the UniProt entries cited, without tags or fusion partners.
UniProt P17844: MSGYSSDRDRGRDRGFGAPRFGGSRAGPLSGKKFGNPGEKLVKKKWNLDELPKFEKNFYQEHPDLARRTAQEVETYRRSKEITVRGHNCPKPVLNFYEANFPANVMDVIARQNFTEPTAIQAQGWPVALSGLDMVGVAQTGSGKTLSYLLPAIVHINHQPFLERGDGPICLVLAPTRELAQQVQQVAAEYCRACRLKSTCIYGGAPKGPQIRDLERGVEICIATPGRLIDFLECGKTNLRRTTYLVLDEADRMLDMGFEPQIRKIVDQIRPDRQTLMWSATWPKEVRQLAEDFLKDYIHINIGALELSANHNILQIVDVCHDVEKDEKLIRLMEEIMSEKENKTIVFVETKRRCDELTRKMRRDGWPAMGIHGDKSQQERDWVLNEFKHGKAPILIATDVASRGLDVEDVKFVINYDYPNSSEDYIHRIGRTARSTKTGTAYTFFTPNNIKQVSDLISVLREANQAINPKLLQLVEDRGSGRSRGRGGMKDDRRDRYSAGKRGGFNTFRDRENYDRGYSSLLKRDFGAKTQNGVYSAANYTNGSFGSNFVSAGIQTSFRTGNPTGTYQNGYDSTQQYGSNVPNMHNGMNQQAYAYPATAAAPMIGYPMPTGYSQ
UniProt P35222: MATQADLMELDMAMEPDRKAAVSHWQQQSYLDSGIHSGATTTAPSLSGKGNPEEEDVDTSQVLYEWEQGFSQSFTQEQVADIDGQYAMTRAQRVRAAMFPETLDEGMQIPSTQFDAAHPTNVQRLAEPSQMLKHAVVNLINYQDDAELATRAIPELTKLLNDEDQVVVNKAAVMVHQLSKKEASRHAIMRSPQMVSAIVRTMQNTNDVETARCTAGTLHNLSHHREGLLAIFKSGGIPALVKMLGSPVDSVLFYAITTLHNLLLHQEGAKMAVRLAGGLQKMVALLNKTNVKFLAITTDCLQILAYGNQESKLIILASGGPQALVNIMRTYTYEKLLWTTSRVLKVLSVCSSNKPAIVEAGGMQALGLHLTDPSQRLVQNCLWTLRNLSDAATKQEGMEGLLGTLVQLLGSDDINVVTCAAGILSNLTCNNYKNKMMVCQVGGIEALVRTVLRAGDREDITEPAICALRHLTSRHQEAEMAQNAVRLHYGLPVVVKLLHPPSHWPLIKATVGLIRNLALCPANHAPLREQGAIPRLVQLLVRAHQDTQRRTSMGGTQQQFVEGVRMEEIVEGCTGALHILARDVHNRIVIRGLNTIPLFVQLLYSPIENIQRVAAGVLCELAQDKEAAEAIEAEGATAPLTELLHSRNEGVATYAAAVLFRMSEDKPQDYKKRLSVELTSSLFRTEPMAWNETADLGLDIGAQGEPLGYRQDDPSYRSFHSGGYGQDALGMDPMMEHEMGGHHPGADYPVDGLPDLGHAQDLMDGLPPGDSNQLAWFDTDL

For this test, the target named is DDX5 (human (endogenous in HCT116)) (UniProt P17844). The experiment in a line: co-IP; endogenous DDX5 and β-catenin in HCT116 cells; which protein was precipitated is not told in the text shown.

Results are given in words; binding and its absence hold for the method and conditions named. In cells and extracts the contact can be indirect. Some results given as binding are weak or reduced against the parent protein; the word gives no strength.

β-catenin (from UniProt P35222 1-781): the binding result is recorded as “binds”.
